This is one part of the list. Small differences around the control level are noise.

Sequences of proteins named here, by UniProt entry; tags and fusion partners are left off. A change or cut given only in a name is not applied to a line headed by its entry.
UniProt Q9D2C2: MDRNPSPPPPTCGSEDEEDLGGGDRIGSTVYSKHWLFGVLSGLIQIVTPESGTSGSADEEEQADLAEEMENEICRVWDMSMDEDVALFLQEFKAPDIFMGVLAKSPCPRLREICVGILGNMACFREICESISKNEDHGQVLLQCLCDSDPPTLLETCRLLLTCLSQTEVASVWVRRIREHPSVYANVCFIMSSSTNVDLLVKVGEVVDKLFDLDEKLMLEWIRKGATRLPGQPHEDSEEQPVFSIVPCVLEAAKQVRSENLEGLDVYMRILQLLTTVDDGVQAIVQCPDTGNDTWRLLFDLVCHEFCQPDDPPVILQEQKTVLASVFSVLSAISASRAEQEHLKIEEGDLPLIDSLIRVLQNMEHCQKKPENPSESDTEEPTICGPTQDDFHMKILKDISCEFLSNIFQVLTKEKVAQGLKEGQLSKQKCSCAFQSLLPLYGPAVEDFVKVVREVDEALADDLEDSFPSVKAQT
UniProt Q9D2V7: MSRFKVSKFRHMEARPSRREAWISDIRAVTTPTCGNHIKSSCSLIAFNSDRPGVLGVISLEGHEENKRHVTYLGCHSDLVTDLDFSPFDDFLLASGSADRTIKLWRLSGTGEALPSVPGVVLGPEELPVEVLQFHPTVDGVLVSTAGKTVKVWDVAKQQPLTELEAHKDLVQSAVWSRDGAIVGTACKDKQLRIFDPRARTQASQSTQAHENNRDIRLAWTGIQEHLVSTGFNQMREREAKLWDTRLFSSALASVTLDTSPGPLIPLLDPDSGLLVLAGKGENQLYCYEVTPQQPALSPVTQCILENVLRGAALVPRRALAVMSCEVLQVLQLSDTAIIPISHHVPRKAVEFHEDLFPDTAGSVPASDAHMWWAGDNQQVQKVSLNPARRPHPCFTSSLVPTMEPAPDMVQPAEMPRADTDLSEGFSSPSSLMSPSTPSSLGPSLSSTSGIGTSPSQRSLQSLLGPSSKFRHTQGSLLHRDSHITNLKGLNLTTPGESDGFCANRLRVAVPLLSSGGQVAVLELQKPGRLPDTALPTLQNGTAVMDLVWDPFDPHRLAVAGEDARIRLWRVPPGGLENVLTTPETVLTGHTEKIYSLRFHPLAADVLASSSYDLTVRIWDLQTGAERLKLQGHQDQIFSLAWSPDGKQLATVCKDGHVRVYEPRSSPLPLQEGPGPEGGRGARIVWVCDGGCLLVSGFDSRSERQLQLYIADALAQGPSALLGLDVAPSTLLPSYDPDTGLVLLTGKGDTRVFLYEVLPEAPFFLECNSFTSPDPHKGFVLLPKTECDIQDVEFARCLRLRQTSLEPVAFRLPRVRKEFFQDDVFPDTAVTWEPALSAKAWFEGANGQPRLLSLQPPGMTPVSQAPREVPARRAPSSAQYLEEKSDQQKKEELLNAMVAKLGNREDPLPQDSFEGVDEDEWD
UniProt Q9D8Z6: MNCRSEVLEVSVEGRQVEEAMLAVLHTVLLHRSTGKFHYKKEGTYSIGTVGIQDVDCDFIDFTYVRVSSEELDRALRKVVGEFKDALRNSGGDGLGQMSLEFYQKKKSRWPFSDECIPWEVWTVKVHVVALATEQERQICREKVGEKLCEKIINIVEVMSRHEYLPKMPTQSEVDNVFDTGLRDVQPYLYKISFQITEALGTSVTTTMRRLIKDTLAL
UniProt Q9D6L8: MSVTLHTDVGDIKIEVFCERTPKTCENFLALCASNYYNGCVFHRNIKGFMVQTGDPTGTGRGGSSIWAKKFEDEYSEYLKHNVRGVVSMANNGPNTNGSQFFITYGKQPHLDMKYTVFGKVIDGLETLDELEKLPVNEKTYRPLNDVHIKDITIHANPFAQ
UniProt Q9D7N3, whole entry: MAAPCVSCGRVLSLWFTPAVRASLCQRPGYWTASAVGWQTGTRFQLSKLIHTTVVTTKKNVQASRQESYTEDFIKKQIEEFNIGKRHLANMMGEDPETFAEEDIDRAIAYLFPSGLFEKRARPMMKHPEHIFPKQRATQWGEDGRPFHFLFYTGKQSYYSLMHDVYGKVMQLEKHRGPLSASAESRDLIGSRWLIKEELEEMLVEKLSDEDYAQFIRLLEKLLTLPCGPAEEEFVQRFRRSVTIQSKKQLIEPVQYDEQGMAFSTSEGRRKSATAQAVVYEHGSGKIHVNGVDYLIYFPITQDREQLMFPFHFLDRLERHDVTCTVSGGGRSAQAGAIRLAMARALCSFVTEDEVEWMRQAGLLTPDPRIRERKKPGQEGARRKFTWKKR
UniProt Q9D8M7: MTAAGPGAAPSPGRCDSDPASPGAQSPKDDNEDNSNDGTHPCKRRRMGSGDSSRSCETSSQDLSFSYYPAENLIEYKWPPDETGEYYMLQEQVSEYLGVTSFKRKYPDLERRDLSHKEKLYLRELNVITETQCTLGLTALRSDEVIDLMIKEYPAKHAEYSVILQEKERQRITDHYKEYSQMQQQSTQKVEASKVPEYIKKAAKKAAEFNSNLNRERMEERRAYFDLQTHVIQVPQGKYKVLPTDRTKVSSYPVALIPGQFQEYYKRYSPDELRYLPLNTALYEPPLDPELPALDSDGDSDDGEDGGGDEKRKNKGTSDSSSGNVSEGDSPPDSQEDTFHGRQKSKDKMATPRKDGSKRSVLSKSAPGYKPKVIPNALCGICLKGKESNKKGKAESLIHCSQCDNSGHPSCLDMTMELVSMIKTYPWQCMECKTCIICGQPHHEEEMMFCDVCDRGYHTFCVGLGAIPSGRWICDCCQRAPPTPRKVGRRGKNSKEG
UniProt Q9D650: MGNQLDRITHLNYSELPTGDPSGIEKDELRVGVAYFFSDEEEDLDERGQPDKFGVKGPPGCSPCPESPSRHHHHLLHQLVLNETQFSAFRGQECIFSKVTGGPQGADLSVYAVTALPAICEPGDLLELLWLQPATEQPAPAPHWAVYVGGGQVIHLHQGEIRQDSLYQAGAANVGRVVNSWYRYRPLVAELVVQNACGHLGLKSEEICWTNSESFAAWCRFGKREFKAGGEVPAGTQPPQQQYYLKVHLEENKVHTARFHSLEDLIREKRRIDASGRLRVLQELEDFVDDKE
UniProt Q9D8K8: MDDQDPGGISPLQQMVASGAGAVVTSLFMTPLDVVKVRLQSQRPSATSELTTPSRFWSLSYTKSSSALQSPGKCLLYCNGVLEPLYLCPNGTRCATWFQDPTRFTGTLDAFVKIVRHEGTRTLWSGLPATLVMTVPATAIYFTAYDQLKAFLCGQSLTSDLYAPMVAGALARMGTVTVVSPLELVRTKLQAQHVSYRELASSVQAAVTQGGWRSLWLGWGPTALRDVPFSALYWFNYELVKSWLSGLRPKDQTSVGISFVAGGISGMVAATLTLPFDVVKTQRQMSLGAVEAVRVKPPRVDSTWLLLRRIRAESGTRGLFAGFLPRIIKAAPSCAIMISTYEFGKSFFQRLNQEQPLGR
UniProt Q9D7J9: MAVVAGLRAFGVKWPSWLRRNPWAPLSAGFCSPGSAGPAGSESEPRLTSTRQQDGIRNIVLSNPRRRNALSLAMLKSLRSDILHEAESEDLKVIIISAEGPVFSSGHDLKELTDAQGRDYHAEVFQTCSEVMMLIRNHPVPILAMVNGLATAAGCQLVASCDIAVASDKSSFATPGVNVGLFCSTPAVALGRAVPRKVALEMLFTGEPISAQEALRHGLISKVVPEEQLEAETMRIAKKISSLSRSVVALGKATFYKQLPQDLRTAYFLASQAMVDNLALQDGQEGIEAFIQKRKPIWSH
UniProt Q9D6W8: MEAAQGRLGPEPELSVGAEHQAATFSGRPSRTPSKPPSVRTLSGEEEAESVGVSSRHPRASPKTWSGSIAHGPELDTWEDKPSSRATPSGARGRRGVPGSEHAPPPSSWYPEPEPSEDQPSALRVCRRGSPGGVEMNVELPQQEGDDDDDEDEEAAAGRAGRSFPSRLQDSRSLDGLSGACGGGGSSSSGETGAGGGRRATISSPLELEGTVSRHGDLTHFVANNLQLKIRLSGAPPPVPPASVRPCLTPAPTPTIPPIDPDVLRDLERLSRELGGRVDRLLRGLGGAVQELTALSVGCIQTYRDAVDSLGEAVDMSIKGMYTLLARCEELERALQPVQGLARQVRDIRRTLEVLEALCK

Compound in this test: CN[C@@H]1C[C@H]2O[C@@](C)([C@@H]1OC)n1c3ccccc3c3c4c(c5c6ccccc6n2c5c31)C(=O)NC4 [staurosporine]
Description: log2 fold change of tryptic peptide abundance, ligand vs vehicle (limited proteolysis) (log2 ratio); higher = more trypsin-susceptible (destabilized). As to conditions: ligand concentration: 20 uM; sample: mouse liver crude lysate; replicate design: treated separately.
In the case of “UniProt Q9D2C2 (peptide sequence: LMLEWIR, peptide start residue: 217)”, the log2 fold change was -0.208. On to “UniProt Q9D2V7 (peptide sequence: DSHITNLK, peptide start residue: 481)”, for which the log2 fold change was -0.325.

As for “UniProt Q9D8Z6 (peptide sequence: VSSEELDR, peptide start residue: 67)”, the log2 fold change was -0.124. To “UniProt Q9D6L8 (peptide sequence: TYRPLNDVHIKDITIHANPFAQ, peptide start residue: 140)” belongs 0.158; to “UniProt Q9D7N3 (peptide sequence: QSYYSLMHDVYGK, peptide start residue: 156)”, -0.225; to “UniProt Q9D8M7 (peptide sequence: VIPNALCGICLK, peptide start residue: 373)”, -0.176. To “UniProt Q9D650 (peptide sequence: AGGEVPAGTQPPQQQYYLK, peptide start residue: 228)” belongs 0.365. To “UniProt Q9D8K8 (peptide sequence: SSSALQSPGK, peptide start residue: 64)” belongs -0.467; to “UniProt Q9D7J9 (peptide sequence: SVVALGK, peptide start residue: 246)”, 0.249; to “UniProt Q9D773 (peptide sequence: IRPLPPMK, peptide start residue: 287)”, 0.233. Consider “UniProt Q9D6W8 (peptide sequence: TWSGSIAHGPELDTWEDKPSSR, peptide start residue: 64)”, for which the log2 fold change amounted to 0.269.

Source of the values: the supplement of paper PMC12819154, “High-throughput peptide-centric local stability assay extends protein–ligand identification to membrane proteins, tissues and bacteria” (Nature Structural & Molecular Biology, 2025).
